Screen size: about 53,000 sequences; about 3,700 (7%) were called active.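 Rule for the calls: active = gene knockdowns whose robust z-score for IL-1 alpha signal is at least 2 or at most -2, so actives lie on both sides; inactive = the rest.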 The list shows a part of the results.
Test: Components of the Cytosolic LPS Sensing Pathway: Gene Identification via Genome-wide siRNA Screen;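 note: robust z of the log signal after scaling to non-targeting control siRNA wells of the plate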
Settings: RAW264.7 macrophages, IL-1a HTRF, actives lie on both sides, screened at 100 nM (by protocol), cells primed 5 h with Pam3CSK4 first
Method in brief: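 Supernatant IL-1a by HTRF from RAW264.7 cells primed with Pam3CSK4 (5 hours) and transfected with LipidA (24 hour) after 48h siRNA knockdown at 100 nM; cell viability checked with CellTiter-Glo.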

Sequence | z-score
GCUUUGAUGGAUUCUAAUCTT against Htt | inactive: 1.09
GGUUUUAGUAAACUUCCCATT against Fam76b | inactive: -0.692
GCCUGAUGGACCAUGUUUATT against Slc9b2 | inactive: 0.369
GGUUGUCGUCAACAAGAGCTT against Krt72 | inactive: 1.96
GGAUGUGAUAUUAUAAAGGTT against Apba1 | inactive: -1.24
GGUCAUGCUCAUCUUCUAUTT against Pigq | inactive: -1.4
CCACCGGAAUGACAUAAUGTT against Klk11 | inactive: -0.578
GGCCUACAUGAACCAGAGATT against Bloc1s1 | inactive: -0.24
GGAGGACUCCAAGACCUUCTT against Rcn1 | inactive: -0.599
GCCCUUUCAUCAAUAAUGUTT against Slc12a7 | inactive: -0.113
GGCCCUUUAACACAUACCCTT against Pak4 | inactive: 0.00391
CGCGGUGUUCGACAUCUUGTT against Noc4l | active: 2.12
GGUCAGAGUCAUCAACUUATT against Asb8 | inactive: 0.721
GGAUGAAGCAGAAGAAUAATT against Spg7 | inactive: -0.131
GGGCAACAUGUUAUUCUACTT against Psg29 | inactive: -0.051
GCAUGUUUUACAGUGUUCATT against Rxfp1 | active: 2.7
GGUCUUGCUGAUCAACAACTT against Adgrb2 | active: 2.53
GGAGUUAAAUCCCAAACACTT against Scgb2b24 | inactive: 0.896
GGGUGGAGUAUUUUUCUUGTT against Ube2d2a | inactive: 0.0678
GGAAAGAGGGUUUAUUUUGTT against 4930556L07Rik | inactive: 0.919
CCCUUGCUACAAUGAUGCCTT against Mfge8 | active: 2.56
CGUGGACAUCGAUAUCACCTT against Slc26a8 | inactive: -0.737
GGAAAAACUACAUGGUAAATT against Ttll9 | inactive: 0.154
GGUGCUGAUGAAGUUCAUGTT against Ap1b1 | inactive: 1.47
GGGAAACAGUGAAAAGUUCTT against Mblac1 | inactive: -0.945
GGUUGUGUCUUCUUUUCUCTT against Cenph | inactive: 0.392
GGAUAUUCCUGCUGUCACCTT against Dmrt1 | inactive: -1.67

A few values from the list:
Entry for GGUUGUGUCUUCUUUUCUCTT against Cenph under z-score: inactive: 0.392
Entry for GGAGGACUCCAAGACCUUCTT against Rcn1 under z-score: inactive: -0.599
Entry for CCACCGGAAUGACAUAAUGTT against Klk11 under z-score: inactive: -0.578

Carrying on:

Sequence | z-score
GGAUGGUUAUGUGUGGAGUTT against Socs4 | inactive: 0.528
CCUCCACUGCUUUUGUCUATT against Olfr1436 | inactive: 0.114
GGAGUGUUGGAUGCUACCATT against Ache | inactive: -1.12
GCUCUUGAUGUUUAGAGUUTT against Usp17lf | inactive: 0.345
GCACACCUAUGUCCACUCUTT against Aars | inactive: -0.923
CCAUGGAGUCUGGUUUCCUTT against Olfr591 | inactive: -0.668
GCACUUCACACUUAGGGUGTT against Tmem132e | inactive: -1.16
CCCAGUAUCCCAUAACCCATT against 1700022I11Rik | inactive: -1.17
GGAGACUUCUUUUUUGACATT against Myo7b | inactive: 0.63
GGAAAUUUGUAUCCCGAGUTT against Trp53 | active: -2.14
CCCUAUCUCAAGGAAUAAATT against Pcyox1 | inactive: -1.38
GGACCAAGGCUUGGAUCUUTT against Magea6 | inactive: 0.527
GAAUUUGCCAUUUUCAGUGTT against Cox7c | inactive: 0.471
GGAGAAUCAGGGUAGCACATT against Txnl4a | inactive: -0.52
GGAAUAAAUAUUCCUCCUATT against Dis3 | inactive: 0.318
GGAAAAGUUGAGGUUAUCATT against Ggt1 | inactive: -0.538
GGUUUACAUCCAUUGGCAATT against Tlnrd1 | inactive: 0.0774
CCAUCUCAGAAAAGCUUGUTT against Tmed1 | inactive: 0.417
GGAAUAUCUGAUAUCAGUATT against Mdga2 | inactive: 0.0727
GGACAAACUACUUUUGUACTT against Tmprss3 | inactive: -0.226
GGAGUGUCUUUUCUUUAAUTT against Acvr2a | inactive: -0.0225
GGGUAUUAAAACCUCACUUTT against 4931406H21Rik | active: -2.58
GCGAUUGAAAUGAGAGCUCTT against Hgd | inactive: -1.55
GGAAAUCAGAGAAUACUUCTT against Mfsd14b | active: 2.04
GGCCUUUUAAAUGUGUCCUTT against Zfp770 | inactive: -1.83
CCAUGCAACUUACCAAAGATT against Lrrc8d | inactive: 0.183
GGAAGCAACAACAUAAACUTT against 4933440M02Rik | inactive: -0.206

From PubChem BioAssay AID1508600 (Functional Genomics Laboratory (NCATS/FGL), 2020)
